According to publication PMC12120893:
Construct, isoform or probe ends are uncertain for at least one entry. For some assays here: At least one verdict rests on a figure or table, not on a statement of the authors.

Experiments:
[1] = test system: CtAP2/ERF4 (Cymbidium tracyanum); assay: EMSA; details: 50x and 200x unlabeled competitor used; Beyotime EMSA/Gel-Shift kit per manufacturer; pH and temperature not stated; recombinant protein; protein details: His (pET-32a fusion); label: 5' biotin
[2] = test system: CtAP2/ERF1 (Cymbidium tracyanum); assay: EMSA; details: 50x and 200x unlabeled competitor used; Beyotime EMSA/Gel-Shift kit per manufacturer; pH and temperature not stated; recombinant protein; protein details: His (pET-32a fusion); label: 5' biotin

Sequence | binding result [1] | binding result [2]
CATGTAGCCGACCCCACTTA (double strand) [pCtTPS2 -702/-721 (AP2 element)] | binds | –
GTCTCACGACCAGGATTTCC (double strand) [pCtTPS1 -868/-887 (AP2 element)] | – | binds
